Test system: SK-BR-3
Test: normalised viability (% of control), CellTiter-Blue; higher = more viable cells (about 100 = DMSO control)
Conditions: 1000 nM; incubation time: 72 h
Summary of the method: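 Each value is normalised viability at a single listed concentration of the series. Breast cancer cell lines in 384-well plates were incubated 72 h with compound and read by CellTiter-Blue fluorescence at 560/590 nm, with vehicle set to 100 and a positive kill control to 0 on every plate.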

`COc1cc2ncnc(Nc3ccc(F)c(Cl)c3)c2cc1OCCCN1CCOCC1` [Gefitinib] gave a normalised viability of 62.2%.

Reference: the supplement of paper PMC4862054
